In article PMC3372421:
These are yes or no findings as the source states them, for the method shown. Binding seen in cells or lysates may run through a third protein. A yes stands for co-enrichment or nearness to the bait. Other partners may have been found.

Amino acid sequences for entries named in this document (tags omitted).
UniProt Q7Z434: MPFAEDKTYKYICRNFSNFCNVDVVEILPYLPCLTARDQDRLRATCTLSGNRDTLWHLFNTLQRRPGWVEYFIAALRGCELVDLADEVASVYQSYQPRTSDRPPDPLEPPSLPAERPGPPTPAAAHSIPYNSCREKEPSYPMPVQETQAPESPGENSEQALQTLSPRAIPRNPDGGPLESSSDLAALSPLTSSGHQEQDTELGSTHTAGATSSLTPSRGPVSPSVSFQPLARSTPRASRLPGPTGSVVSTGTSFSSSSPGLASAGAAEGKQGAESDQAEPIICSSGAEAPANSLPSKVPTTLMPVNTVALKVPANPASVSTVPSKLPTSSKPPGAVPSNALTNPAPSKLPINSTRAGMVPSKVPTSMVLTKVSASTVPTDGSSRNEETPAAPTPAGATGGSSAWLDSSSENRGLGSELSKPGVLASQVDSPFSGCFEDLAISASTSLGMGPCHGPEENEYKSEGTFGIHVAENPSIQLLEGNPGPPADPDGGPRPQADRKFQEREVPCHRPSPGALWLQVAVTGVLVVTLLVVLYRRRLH
UniProt Q14258: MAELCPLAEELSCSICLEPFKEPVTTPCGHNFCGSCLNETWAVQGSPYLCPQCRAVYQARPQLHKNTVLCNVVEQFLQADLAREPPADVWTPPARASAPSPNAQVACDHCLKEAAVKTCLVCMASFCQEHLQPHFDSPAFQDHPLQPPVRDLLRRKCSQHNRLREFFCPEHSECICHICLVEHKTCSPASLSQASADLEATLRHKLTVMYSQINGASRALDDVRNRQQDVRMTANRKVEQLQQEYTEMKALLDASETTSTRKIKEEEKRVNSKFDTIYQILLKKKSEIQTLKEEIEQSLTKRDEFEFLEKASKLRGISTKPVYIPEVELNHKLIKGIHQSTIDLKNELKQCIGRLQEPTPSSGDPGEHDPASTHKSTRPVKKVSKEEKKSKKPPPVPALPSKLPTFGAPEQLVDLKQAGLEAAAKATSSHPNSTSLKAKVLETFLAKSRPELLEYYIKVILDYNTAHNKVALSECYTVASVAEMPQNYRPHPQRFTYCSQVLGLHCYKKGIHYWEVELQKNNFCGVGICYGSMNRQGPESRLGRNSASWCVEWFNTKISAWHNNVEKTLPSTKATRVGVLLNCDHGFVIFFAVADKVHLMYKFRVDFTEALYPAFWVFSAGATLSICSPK

Target: mitochondrial antiviral signaling adaptor MAVS (human (endogenous in HEK293T)) (UniProt Q7Z434)
Assay: affinity purification with mass spectrometry; MAVS complex immunoprecipitated from cells infected with SeV H4 for four hours; one-dimensional gel, nano LC-MS/MS (10 segment GelC/MS, spectral counting)

binding: binds
Substance: E3 ubiquitin ligase TRIM25 (from UniProt Q14258 1-630)
